From patent USRE50968
Substitutions are numbered along the chain they refer to. Names and notes keep the numbering of the source. Results are given in words; binding and its absence hold for the method and conditions named. Binding can be weak; no strength is given.

By UniProt entry, the sequences of proteins in these tests, tags left out. Where a name states a change or a piece, a line headed by the entry shows the natural chain unless it says otherwise.
UniProt P00740: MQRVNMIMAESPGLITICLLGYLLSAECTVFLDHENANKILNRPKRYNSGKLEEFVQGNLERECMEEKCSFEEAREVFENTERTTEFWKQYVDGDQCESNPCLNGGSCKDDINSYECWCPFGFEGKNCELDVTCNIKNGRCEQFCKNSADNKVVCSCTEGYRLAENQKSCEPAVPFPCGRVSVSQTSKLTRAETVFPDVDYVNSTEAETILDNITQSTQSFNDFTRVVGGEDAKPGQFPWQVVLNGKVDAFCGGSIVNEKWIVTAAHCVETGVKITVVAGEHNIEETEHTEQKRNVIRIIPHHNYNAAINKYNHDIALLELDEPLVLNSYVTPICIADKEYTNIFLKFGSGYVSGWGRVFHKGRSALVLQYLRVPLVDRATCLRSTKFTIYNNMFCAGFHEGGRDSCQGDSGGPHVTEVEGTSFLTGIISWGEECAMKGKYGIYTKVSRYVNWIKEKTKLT

B1: humanized A69 antibody homodimer having a modified variable region (CDR) (hA69-N97R/hAL-F123j4) (antibody, V domains shown)
VH: QVQLVQSGAEVKKPGSSVKVSCKASGGTFSDYYMHWVRQAPGQGLEWMGYINPSSGYTKYNRKFRDRVTITADKSTSTAYMELSSLRSEDTAVYYCARGGRGYYLDYWGQGTTVTVSS
VL: DIVMTQSPSSLSASVGDRVTITCKASQNVGTAVAWYQQKPGKAPKLLIYSASYRYSGVPSRFSGSRYGTDFTLTISSLQPEDLATYYCQQYSNYITFGGGTKVEIK
B2: unmodified humanized A69 antibody homodimer (hA69a/hAL-F123j4) (antibody, V domains shown)
VH: B1 VH with R101N
VL: B1 VL

Assays:
[1] = target: Factor IXaβ (Enzyme Research Laboratories) (UniProt P00740); assay: ELISA, Factor IXaβ coated on plate, purified antibody added, alkaline phosphatase-labeled secondary antibody, absorbance at 405 nm
[2] = target: Factor IXaβ (Enzyme Research Laboratories) (UniProt P00740); assay: ELISA on Factor IXa (FIG. 8)

Binder | binding [1] | binding [2]
B1 | binds | binds
B2 | binds | binds
